No constants are given. Whether binding was seen depends on the method and setting. In cells and extracts the contact can be indirect. A result given as binding can be weak or reduced; the word gives no strength. Tags and fused reporters may be left off the sequences shown.
Target: T1, CDC50A-FLAG (Gallus gallus CDC50A, FLAG-tagged) (Gallus gallus) (UniProt Q5F362)
T1 sequence: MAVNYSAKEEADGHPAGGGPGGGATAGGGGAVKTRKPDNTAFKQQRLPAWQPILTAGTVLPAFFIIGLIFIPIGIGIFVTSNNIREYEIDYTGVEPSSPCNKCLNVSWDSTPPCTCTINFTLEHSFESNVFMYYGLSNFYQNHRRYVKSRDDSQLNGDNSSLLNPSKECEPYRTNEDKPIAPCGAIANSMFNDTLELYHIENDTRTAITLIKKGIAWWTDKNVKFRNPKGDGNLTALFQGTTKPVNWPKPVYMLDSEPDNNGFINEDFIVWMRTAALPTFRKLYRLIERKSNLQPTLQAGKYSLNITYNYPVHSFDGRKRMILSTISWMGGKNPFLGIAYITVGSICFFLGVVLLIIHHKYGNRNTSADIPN
Experiment: co-IP

binding: binds
Substance: ATP11c-HA (Gallus gallus phospholipid flippase ATP11c, HA-tagged)

From article PMC12446626
